Measurements reported in PubChem BioAssay AID652243 (Drosophila RNAi Screening Center, 2013)

Screen: 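Knock-downs that decrease or increase androgen receptor reporter signal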 (primary screen)
Cell system: Drosophila S2R+ cells
Knock-down reagent: long dsRNA against Drosophila genes
Duration: 72 h (48 h, then 24 h hormone)
Treatment: synthetic androgen R1881 at 10 nM for 24 h
Read-out: 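Per-well raw luminescence of the androgen-driven firefly reporter and of the Renilla control, two replicates each, without normalisation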
Reading the numbers: firefly reporter light: higher = more light from androgen-responsive reporter; Renilla control light: higher = more constitutive control signal (cell number, transfection)
Hit rule: 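Hit when the log firefly-to-Renilla ratio dropped or increased by a fixed fold versus the mean of GFP or LacZ controls across duplicate plates; lowering cut given as 1.5 and as 3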
Calls: active = hit: reporter lowered or raised; inactive = no hit
The screen tested about 24,000 reagents; below is a random part of those with a known target gene and a result. Over the whole deposit, 246 (1%) are marked active. 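Plates not normalised; calls are printed but the firefly/Renilla ratio behind them is not deposited; fold cut for lowering reported inconsistently.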 Raw values vary from plate to plate and are shown uncorrected. Names joined by + are all predicted targets of the reagent. Not given: the amount of reagent.

gene	dsRNA	firefly reporter light, replicate 1	firefly reporter light, replicate 2	Renilla control light, replicate 1	Renilla control light, replicate 2	outcome
CG12825	DRSC06174	6.93e5	8.64e5	2.23e6	2.31e6	inactive
CG12825	DRSC26984	5.00e5	3.11e5	9.52e5	6.07e5	inactive
Prip	DRSC07044	1.61e6	1.02e6	2.21e6	1.21e6	inactive
Prip	DRSC26459	3.38e5	2.37e5	7.63e5	3.98e5	inactive
Lip3 (Lipase 3)	DRSC16727	5.36e5	8.82e5	1.31e6	1.80e6	inactive
Lip3 (Lipase 3)	DRSC29354	5.07e5	5.13e5	1.39e6	1.39e6	inactive
Obp49a (Odorant-binding protein 49a)	DRSC22562	6.08e5	6.40e5	1.39e6	1.09e6	inactive
Obp49a (Odorant-binding protein 49a)	DRSC25703	3.39e5	2.47e5	4.95e5	4.83e5	inactive
CG12506	DRSC00347	1.46e5	1.41e5	6.82e5	7.68e5	inactive
Khc (Kinesin heavy chain)	DRSC07448	4.30e5	1.24e5	6.07e5	2.80e5	inactive
Khc (Kinesin heavy chain)	DRSC24335	4.78e5	2.91e5	3.13e5	2.90e5	inactive
scb (scab)	DRSC05542	1.46e5	2.04e5	4.12e5	4.25e5	inactive
scb (scab)	DRSC07678	79148	57246	1.38e6	1.38e6	inactive
eff (effete)	DRSC16940	1.72e5	1.55e5	2.25e6	1.62e6	inactive
eff (effete)	DRSC38383	7.46e5	6.15e5	2.35e6	1.71e6	inactive
TFAM (mitochondrial transcription factor A)	DRSC15552	33732	54491	4.39e5	4.44e5	inactive
TFAM (mitochondrial transcription factor A)	DRSC26903	3.47e5	3.19e5	8.79e5	7.71e5	inactive
Hrb98DE (Heterogeneous nuclear ribonucleoprotein at 98DE)	DRSC16709	35213	51848	4.44e5	3.72e5	inactive
Hrb98DE (Heterogeneous nuclear ribonucleoprotein at 98DE)	DRSC24508	2.44e5	2.42e5	6.23e5	6.61e5	active
CG11882	DRSC14425	1.34e5	1.27e5	2.08e6	2.15e6	inactive
CG11882	DRSC27909	6.18e5	3.87e5	2.11e6	1.40e6	inactive
Rbp9 (RNA-binding protein 9)	DRSC00416	85003	1.13e5	4.96e5	8.77e5	inactive
Rbp9 (RNA-binding protein 9)	DRSC00779	6.06e5	4.85e5	9.52e5	5.04e5	inactive
Rbp9 (RNA-binding protein 9)	DRSC29834	6.70e5	3.84e5	1.31e6	1.33e6	inactive
CG14185	DRSC10184	2.46e5	2.24e5	1.94e6	2.31e6	inactive
CG30349	DRSC06421	2.83e5	2.47e5	2.27e6	2.01e6	inactive
CG30349	DRSC06839	1.18e5	2.12e5	1.10e6	1.14e6	inactive
CG30349	DRSC28739	8.43e5	4.08e5	1.46e6	1.30e6	inactive
CG3420	DRSC04995	3.62e5	4.63e5	2.67e6	2.88e6	inactive
CG5131	DRSC02817	1.44e5	1.78e5	1.99e6	1.74e6	inactive
CG16998	DRSC10235	1.22e5	2.67e5	2.02e6	2.69e6	inactive
SRPK (SR Protein Kinase)	DRSC07090	1.11e6	9.20e5	1.94e6	2.09e6	inactive
SRPK (SR Protein Kinase)	DRSC28162	4.84e5	6.76e5	1.10e6	1.23e6	inactive
SRPK (SR Protein Kinase)	DRSC36776					inactive
CG6985	DRSC16164	87088	96959	1.07e6	1.09e6	inactive
CG6985	DRSC24923	7.22e5	8.65e5	8.28e5	9.16e5	inactive
rumpel	DRSC18436	3.51e5	4.20e5	3.74e6	2.87e6	inactive
CG6567 + CG4565	DRSC15599	1.03e5	88274	1.94e6	1.57e6	inactive
CR41454 + CG33217	DRSC38608	9.09e5	7.96e5	1.84e6	2.26e6	inactive
CG7239	DRSC23113	6.76e5	6.98e5	2.41e6	2.38e6	inactive

Sorted by “Renilla control light, replicate 1” (low to high): some entries from above.
gene	dsRNA	firefly reporter light, replicate 1	firefly reporter light, replicate 2	Renilla control light, replicate 1	Renilla control light, replicate 2	outcome
Prip	DRSC26459	3.38e5	2.37e5	7.63e5	3.98e5	inactive
CG12825	DRSC26984	5.00e5	3.11e5	9.52e5	6.07e5	inactive
Lip3 (Lipase 3)	DRSC16727	5.36e5	8.82e5	1.31e6	1.80e6	inactive
Lip3 (Lipase 3)	DRSC29354	5.07e5	5.13e5	1.39e6	1.39e6	inactive
Prip	DRSC07044	1.61e6	1.02e6	2.21e6	1.21e6	inactive
